From the supplement of paper PMC8728848
Some of the results follow.

Key:
Experiment in all cases: glycan array binding signal (z-score within array); higher = stronger binding
Details in all cases: glycan notation: IUPAC condensed, linker removed
[1] = biological target: Neu5Ac(a2-3)Gal(b1-3)GalNAc
Summary of the method: (§1)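 Columns mapping to the same glycan were averaged after glycan names were converted to IUPAC-condensed notation. The data come from 3228 arrays in the Consortium for Functional Glycomics database, limited to those with an available protein sequence. Binding is reported as a within-array Z-score averaged across arrays of one protein sequence and across linkers.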

[2] = biological target: Neu5Ac(a2-3)Gal(b1-3)GalNAc(b1-3)Gal(a1-4)Gal(b1-4)Glc
Summary of the method: as §1

[3] = biological target: Neu5Ac(a2-3)Gal(b1-3)GalNAc(b1-4)[Neu5Ac(a2-3)]Gal(b1-4)Glc
Summary of the method: as §1

[4] = biological target: Neu5Ac(a2-3)Gal(b1-3)GalNAc(b1-4)[Neu5Ac(a2-8)Neu5Ac(a2-3)]Gal(b1-4)Glc
Summary of the method: as §1

[5] = biological target: Neu5Ac(a2-3)Gal(b1-3)GalNAc6S
Summary of the method: as §1

[6] = biological target: Neu5Ac(a2-3)Gal(b1-3)GlcNAc
Summary of the method: as §1

[7] = biological target: Neu5Ac(a2-3)Gal(b1-3)GlcNAc(b1-2)Man
Summary of the method: as §1

[8] = biological target: Neu5Ac(a2-3)Gal(b1-3)GlcNAc(b1-2)Man(a1-3)[GlcNAc(b1-4)][Neu5Ac(a2-3)Gal(b1-3)GlcNAc(b1-2)Man(a1-6)]Man(b1-4)GlcNAc(b1-4)GlcNAc
Summary of the method: as §1

[9] = biological target: Neu5Ac(a2-3)Gal(b1-3)GlcNAc(b1-2)Man(a1-3)[Neu5Ac(a2-3)Gal(b1-3)GlcNAc(b1-2)Man(a1-6)]Man(b1-4)GlcNAc(b1-4)GlcNAc
Summary of the method: as §1

[10] = biological target: Neu5Ac(a2-3)Gal(b1-3)GlcNAc(b1-2)[Neu5Ac(a2-3)Gal(b1-3)GlcNAc(b1-4)]Man(a1-6)[Neu5Ac(a2-3)Gal(b1-3)GlcNAc(b1-2)Man(a1-3)]Man(b1-4)GlcNAc(b1-4)GlcNAc
Summary of the method: as §1

[11] = biological target: Neu5Ac(a2-3)Gal(b1-3)GlcNAc(b1-3)Gal(b1-3)GlcNAc
Summary of the method: as §1

[12] = biological target: Neu5Ac(a2-3)Gal(b1-3)GlcNAc(b1-3)Gal(b1-4)GlcNAc
Summary of the method: as §1

[13] = biological target: Neu5Ac(a2-3)Gal(b1-3)GlcNAc(b1-3)GalNAc
Summary of the method: as §1

[14] = biological target: Neu5Ac(a2-3)Gal(b1-3)GlcNAc(b1-4)Gal(b1-4)Glc
Summary of the method: as §1

[15] = biological target: Neu5Ac(a2-3)Gal(b1-3)GlcNAc(b1-6)GalNAc
Summary of the method: as §1

[16] = biological target: Neu5Ac(a2-3)Gal(b1-3)GlcNAc6S
Summary of the method: as §1

[17] = biological target: Neu5Ac(a2-3)Gal(b1-3)[Fuc(a1-4)]GlcNAc
Summary of the method: as §1

[18] = biological target: Neu5Ac(a2-3)Gal(b1-3)[Fuc(a1-4)]GlcNAc(b1-3)Gal(b1-3)[Fuc(a1-4)]GlcNAc
Summary of the method: as §1

[19] = biological target: Neu5Ac(a2-3)Gal(b1-3)[Fuc(a1-4)]GlcNAc(b1-3)Gal(b1-4)[Fuc(a1-3)]GlcNAc
Summary of the method: as §1

[20] = biological target: Neu5Ac(a2-3)Gal(b1-3)[GlcNAc(b1-6)]GalNAc
Summary of the method: as §1

[21] = biological target: Neu5Ac(a2-3)Gal(b1-3)[Neu5Ac(a2-6)]GalNAc
Summary of the method: as §1

[22] = biological target: Neu5Ac(a2-3)Gal(b1-3)[Neu5Ac(a2-6)]GlcNAc(b1-3)[Fuc(a1-3)[Gal(b1-4)]GlcNAc(b1-6)]Gal(b1-4)Glc
Summary of the method: as §1

[23] = biological target: Neu5Ac(a2-3)Gal(b1-3)]Neu5Ac(a2-3)Gal(b1-4)]GlcNAc
Summary of the method: as §1

Neu5Ac(a2-3)Gal(b1-4)Glc = biological target: Neu5Ac(a2-3)Gal(b1-4)Glc
Summary of the method: as §1

[24] = biological target: Neu5Ac(a2-3)Gal(b1-4)GlcNAc
Summary of the method: as §1

[25] = biological target: Neu5Ac(a2-3)Gal(b1-4)GlcNAc(b1-2)Man
Summary of the method: as §1

[26] = biological target: Neu5Ac(a2-3)Gal(b1-4)GlcNAc(b1-2)Man(a1-3)[GlcNAc(b1-4)][Neu5Ac(a2-3)Gal(b1-4)GlcNAc(b1-2)Man(a1-6)]Man(b1-4)GlcNAc(b1-4)GlcNAc
Summary of the method: as §1

[27] = biological target: Neu5Ac(a2-3)Gal(b1-4)GlcNAc(b1-2)Man(a1-3)[Neu5Ac(a2-3)Gal(b1-4)GlcNAc(b1-2)Man(a1-6)]Man(b1-4)GlcNAc(b1-4)GlcNAc
Summary of the method: as §1

[28] = biological target: Neu5Ac(a2-3)Gal(b1-4)GlcNAc(b1-2)Man(a1-3)[Neu5Ac(a2-3)Gal(b1-4)GlcNAc(b1-2)Man(a1-6)]Man(b1-4)GlcNAc(b1-4)[Fuc(a1-6)]GlcNAc
Summary of the method: as §1

[29] = biological target: Neu5Ac(a2-3)Gal(b1-4)GlcNAc(b1-2)Man(a1-3)[Neu5Ac(a2-6)Gal(b1-4)GlcNAc(b1-2)Man(a1-6)]Man(b1-4)GlcNAc(b1-4)GlcNAc
Summary of the method: as §1

[30] = biological target: Neu5Ac(a2-3)Gal(b1-4)GlcNAc(b1-2)[Neu5Ac(a2-3)Gal(b1-4)GlcNAc(b1-4)]Man(a1-3)[GlcNAc(b1-4)][Neu5Ac(a2-3)Gal(b1-4)GlcNAc(b1-2)[Neu5Ac(a2-3)Gal(b1-4)GlcNAc(b1-6)]Man(a1-6)]Man(b1-4)GlcNAc(b1-4)GlcNAc
Summary of the method: as §1

[31] = biological target: Neu5Ac(a2-3)Gal(b1-4)GlcNAc(b1-2)[Neu5Ac(a2-3)Gal(b1-4)GlcNAc(b1-4)]Man(a1-3)[GlcNAc(b1-4)][Neu5Ac(a2-3)Gal(b1-4)GlcNAc(b1-4)Man(a1-6)]Man(b1-4)GlcNAc(b1-4)GlcNAc
Summary of the method: as §1

[32] = biological target: Neu5Ac(a2-3)Gal(b1-4)GlcNAc(b1-2)[Neu5Ac(a2-3)Gal(b1-4)GlcNAc(b1-6)]Man(a1-6)[Neu5Ac(a2-3)Gal(b1-4)GlcNAc(b1-2)Man(a1-3)][GlcNAc(b1-4)]Man(b1-4)GlcNAc(b1-4)GlcNAc
Summary of the method: as §1

[33] = biological target: Neu5Ac(a2-3)Gal(b1-4)GlcNAc(b1-3)Gal
Summary of the method: as §1

[34] = biological target: Neu5Ac(a2-3)Gal(b1-4)GlcNAc(b1-3)Gal(b1-3)GlcNAc
Summary of the method: as §1

[35] = biological target: Neu5Ac(a2-3)Gal(b1-4)GlcNAc(b1-3)Gal(b1-4)GlcNAc
Summary of the method: as §1

[36] = biological target: Neu5Ac(a2-3)Gal(b1-4)GlcNAc(b1-3)Gal(b1-4)GlcNAc(b1-2)Man(a1-3)[Neu5Ac(a2-3)Gal(b1-4)GlcNAc(b1-3)Gal(b1-4)GlcNAc(b1-2)Man(a1-6)]Man(b1-4)GlcNAc(b1-4)GlcNAc
Summary of the method: as §1

B1: Aap lectin (Staphylococcus epidermidis) (protein)
chain: VNLNYSSPFMSLLSMPADSSSNNTKNTIDIPPTTVKGRDNYDFYGRVDIESNPTDLNATNLTRYNYGQPPGTTTAGAVQFKNQVSFDKDFDFNIRVANNRQSNTTGADGWGFMFSKKDGDDFLKNGGILREKGTPSAAGFRIDTGYYNNDPLDKIQKQAGQGYRGYGTFVKNDSQGNTSKVGSGTPSTDFLNYADNTTNDLDGKFHGQKLNNVNLKYNASNQTFTATYAGKTWTATLSELGLSPTDSYNFLVTSS
Q: B1 was tested. Which “glycan array binding signal (z-score)” value [1] did it give?
A: The value was -0.623.

Q: And the “glycan array binding signal (z-score)” value [2]?
A: Its value is -0.878.

Q: And the “glycan array binding signal (z-score)” value [3]?
A: Its value is -0.477.

Q: What about the “glycan array binding signal (z-score)” value [4] of the same binder?
A: The value was 0.628.

Q: And the “glycan array binding signal (z-score)” value [5]?
A: The value was -0.872.

Q: What about the “glycan array binding signal (z-score)” value [6] of the same binder?
A: Its value is -0.197.

Q: What about the “glycan array binding signal (z-score)” value [7] of the same binder?
A: Its value is -0.27.

Q: And the “glycan array binding signal (z-score)” value [8]?
A: The value was 1.11.

Q: And the “glycan array binding signal (z-score)” value [9]?
A: The value was -0.722.

Q: What about the “glycan array binding signal (z-score)” value [10] of the same binder?
A: Its value is -0.885.

Q: What about the “glycan array binding signal (z-score)” value [11] of the same binder?
A: Its value is -0.943.

Q: What about the “glycan array binding signal (z-score)” value [12] of the same binder?
A: The value was -0.71.

Q: What about the “glycan array binding signal (z-score)” value [13] of the same binder?
A: The value was -0.506.

Q: And the “glycan array binding signal (z-score)” value [14]?
A: Its value is 1.61.

Q: What about the “glycan array binding signal (z-score)” value [15] of the same binder?
A: The value was 1.91.

Q: What about the “glycan array binding signal (z-score)” value [16] of the same binder?
A: Its value is 0.081.

Q: And the “glycan array binding signal (z-score)” value [17]?
A: Its value is -0.496.

Q: And the “glycan array binding signal (z-score)” value [18]?
A: The value was -0.794.

Q: What about the “glycan array binding signal (z-score)” value [19] of the same binder?
A: The value was 1.41.

Q: What about the “glycan array binding signal (z-score)” value [20] of the same binder?
A: Its value is -0.72.

Q: And the “glycan array binding signal (z-score)” value [21]?
A: The value was -0.509.

Q: And the “glycan array binding signal (z-score)” value [22]?
A: The value was 0.304.

Q: And the “glycan array binding signal (z-score)” value [23]?
A: Its value is -0.05.

Q: What about the “glycan array binding signal (z-score)” value (Neu5Ac(a2-3)Gal(b1-4)Glc) of the same binder?
A: The value was 0.518.

Q: What about the “glycan array binding signal (z-score)” value [24] of the same binder?
A: Its value is -0.35.

Q: What about the “glycan array binding signal (z-score)” value [25] of the same binder?
A: The value was -0.335.

Q: What about the “glycan array binding signal (z-score)” value [26] of the same binder?
A: The value was -0.854.

Q: And the “glycan array binding signal (z-score)” value [27]?
A: Its value is -0.933.

Q: What about the “glycan array binding signal (z-score)” value [28] of the same binder?
A: Its value is 1.01.

Q: What about the “glycan array binding signal (z-score)” value [29] of the same binder?
A: The value was -0.603.

Q: What about the “glycan array binding signal (z-score)” value [30] of the same binder?
A: The value was -0.88.

Q: What about the “glycan array binding signal (z-score)” value [31] of the same binder?
A: Its value is -0.885.

Q: What about the “glycan array binding signal (z-score)” value [32] of the same binder?
A: The value was -0.339.

Q: What about the “glycan array binding signal (z-score)” value [33] of the same binder?
A: The value was 0.321.

Q: And the “glycan array binding signal (z-score)” value [34]?
A: The value was -0.822.

Q: What about the “glycan array binding signal (z-score)” value [35] of the same binder?
A: Its value is -0.266.

Q: And the “glycan array binding signal (z-score)” value [36]?
A: Its value is -0.87.
